# Assay results published in patent US20160113911A1, “METHODS AND COMPOSITIONS FOR THE TREATMENT OF CANCER” (THE GENERAL HOSPITAL CORPORATION, priority 2013, published 2016).
# Numbering of substitutions follows the chain as printed. Names and notes keep the numbering of the source.
# B1: 2A-R152W*: KDM4A mutation (protein, UniProt O75164 2-1064, looked up, variant R152W)
# Lysine-specific demethylase 4A: ASESETLNPSARIMTFYPTMEEFRNFSRYIAYIESQGAHRAGLAKVVPPKEWKPRASYDDIDDLVIPAPIQQLVTGQSGLFTQYNIQKKAMTVREFRKIANSDKYCTPRYSEFEELERKYWKNLTFNPPIYGADVNGTLYEKHVDEWNIGWLRTILDLVEKESGITIEGVNTPYLYFGMWKTSFAWHTEDMDLYSINYLHFGEPKSWYSVPPEHGKRLERLAKGFFPGSAQSCEAFLRHKMTLISPLMLKKYGIPFDKVTQEAGEFMITFPYGYHAGFNHGFNCAESTNFATRRWIEYGKQAVLCSCRKDMVKISMDVFVRKFQPERYKLWKAGKDNTVIDHTLPTPEAAEFLKESELPPRAGNEEECPEEDMEGVEDGEEGDLKTSLAKHRIGTKRHRVCLEIPQEVSQSELFPKEDLSSEQYEMTECPAALAPVRPTHSSVRQVEDGLTFPDYSDSTEVKFEELKNVKLEEEDEEEEQAAAALDLSVNPASVGGRLVFSGSKKKSSSSLGSGSSRDSISSDSETSEPLSCRAQGQTGVLTVHSYAKGDGRVTVGEPCTRKKGSAARSFSERELAEVADEYMFSLEENKKSKGRRQPLSKLPRHHPLVLQECVSDDETSEQLTPEEEAEETEAWAKPLSQLWQNRPPNFEAEKEFNETMAQQAPHCAVCMIFQTYHQVEFGGFNQNCGNASDLAPQKQRTKPLIPEMCFTSTGCSTDINLSTPYLEEDGTSILVSCKKCSVRVHASCYGVPPAKASEDWMCSRCSANALEEDCCLCSLRGGALQRANDDRWVHVSCAVAILEARFVNIAERSPVDVSKIPLPRFKLKCIFCKKRRKRTAGCCVQCSHGRCPTAFHVSCAQAAGVMMQPDDWPFVVFITCFRHKIPNLERAKGALQSITAGQKVISKHKNGRFYQCEVVRLTTETFYEVNFDDGSFSDNLYPEDIVSQDCLQFGPPAEGEVVQVRWTDGQVYGAKFVASHPIQMYQVEFEDGSQLVVKRDDVYTLDEELPKRVKSRLSVASDMRFNEIFTEKEVKQEKKRQRVINSRYREDYIEPALYRAIME
# B2: 2A-V743I*: KDM4A mutation (protein, UniProt O75164 2-1064, looked up, variant V743I)
# Lysine-specific demethylase 4A: B1 Lysine-specific demethylase 4A with W151R, V742I
# B3: 2A-R218W: KDM4A mutation (protein)
# chain: MASESETLNPSARIMTFYPTMEEFRNFSRYIAYIESQGAHRAGLAKVVPPKEWKPRASYDDIDDLVIPAPIQQLVTGQSGLFTQYNIQKKAMTVREFRKIANSDKYCTPRYSEFEELERKYWKNLTFNPPIYGADVNGTLYEKHVDEWNIGRLRTILDLVEKESGITIEGVNTPYLYFGMWKTSFAWHTEDMDLYSINYLHFGEPKSWYSVPPEHGKWLERLAKGFFPGSAQSCEAFLRHKMTLISPLMLKKYGIPFDKVTQEAGEFMITFPYGYHAGFNHGFNCAESTNFATRRWIEYGKQAVLCSCRKDMVKISMDVFVRKFQPERYKLWKAGKDNTVIDHTLPTPEAAEFLKESELPPRAGNEEECPEEDMEGVEDGEEGDLKTSLAKHRIGTKRHRVCLEIPQEVSQSELFPKEDLSSEQYEMTECPAALAPVRPTHSSVRQVEDGLTFPDYSDSTEVKFEELKNVKLEEEDEEEEQAAAALDLSVNPASVGGRLVFSGSKKKSSSSLGSGSSRDSISSDSETSEPLSCRAQGQTGVLTVHSYAKGDGRVTVGEPCTRKKGSAARSFSERELAEVADEYMFSLEENKKSKGRRQPLSKLPRHHPLVLQECVSDDETSEQLTPEEEAEETEAWAKPLSQLWQNRPPNFEAEKEFNETMAQQAPHCAVCMIFQTYHQVEFGGFNQNCGNASDLAPQKQRTKPLIPEMCFTSTGCSTDINLSTPYLEEDGTSILVSCKKCSVRVHASCYGVPPAKASEDWMCSRCSANALEEDCCLCSLRGGALQRANDDRWVHVSCAVAILEARFVNIAERSPVDVSKIPLPRFKLKCIFCKKRRKRTAGCCVQCSHGRCPTAFHVSCAQAAGVMMQPDDWPFVVFITCFRHKIPNLERAKGALQSITAGQKVISKHKNGRFYQCEVVRLTTETFYEVNFDDGSFSDNLYPEDIVSQDCLQFGPPAEGEVVQVRWTDGQVYGAKFVASHPIQMYQVEFEDGSQLVVKRDDVYTLDEELPKRVKSRLSVASDMRFNEIFTEKEVKQEKKRQRVINSRYREDYIEPALYRAIME
# B4: 2A-A236V: KDM4A mutation (protein)
# chain: B3 chain with W218R, A236V
# B5: 2A-E426K: KDM4A mutation (protein)
# chain: B3 chain with W218R, E426K
# B6: 2A-P326T: KDM4A mutation (protein)
# chain: B3 chain with W218R, P326T
# B7: 2A-G376V: KDM4A mutation (protein)
# chain: B3 chain with W218R, G376V
# B8: 2A-E368K: KDM4A mutation (protein)
# chain: B3 chain with W218R, E368K
# B9: 2A-E558Q: KDM4A mutation (protein)
# chain: B3 chain with W218R, E558Q
# B10: 2A-R239H: KDM4A mutation (protein)
# chain: B3 chain with W218R, R239H
# B11: 2A-R400Q: KDM4A mutation (protein)
# chain: B3 chain with W218R, R400Q
# B12: 2A-D524V: KDM4A mutation (protein)
# chain: B3 chain with W218R, D524V
# B13: 2A-V319M: KDM4A mutation (protein)
# chain: B3 chain with W218R, V319M
# B14: 2A-P348L: KDM4A mutation (protein)
# chain: B3 chain with W218R, P348L
# B15: 2A-T289I: KDM4A mutation (protein)
# chain: B3 chain with W218R, T289I
# B16: 2A-G278S: KDM4A mutation (protein)
# chain: B3 chain with W218R, G278S
# B17: 2A-G225C: KDM4A mutation (protein)
# chain: B3 chain with W218R, G225C
# B18: 2A-V490M: KDM4A mutation (protein)
# chain: B3 chain with W218R, V490M
# B19: 2A-R498H: KDM4A mutation (protein)
# chain: B3 chain with W218R, R498H
# Assay: Subcellular localization of KDM4 variants (immunofluorescence)
# Assay type: cell-based
# Conditions: KDM4A mutations; % nuclear
row,Molecule,Localization
1,B1,+++ (+++ indicates >80% nuclear)
2,B2,+++ (+++ indicates >80% nuclear)
3,B3,++ (++ indicates 60-79% nuclear)
4,B4,+++ (+++ indicates >80% nuclear)
5,B5,+++ (+++ indicates >80% nuclear)
6,B6,++ (++ indicates 60-79% nuclear)
7,B7,++ (++ indicates 60-79% nuclear)
8,B8,++ (++ indicates 60-79% nuclear)
9,B9,+ (+ indicates 40-59% nuclear)
10,B10,+++ (+++ indicates >80% nuclear)
11,B11,+ (+ indicates 40-59% nuclear)
12,B12,+++ (+++ indicates >80% nuclear)
13,B13,++ (++ indicates 60-79% nuclear)
14,B14,++ (++ indicates 60-79% nuclear)
15,B15,+++ (+++ indicates >80% nuclear)
16,B16,+++ (+++ indicates >80% nuclear)
17,B17,++ (++ indicates 60-79% nuclear)
18,B18,++ (++ indicates 60-79% nuclear)
19,B19,++ (++ indicates 60-79% nuclear)
